# Experimental data from PubChem BioAssay AID540256 (National Center for Advancing Translational Sciences (NCATS), 2011).
# Out of some 300,000 compounds screened, about 3,700 (1.2%) were called active. The inconclusive results got no clear call from the source; some entries with a clear call stand among them for comparison. Calls come from the whole dose curve; tested in HEK293 cells. Potencies of inconclusive entries are doubtful fits and often do not repeat.
# Assay: qHTS for Inhibitors of binding or entry into cells for Lassa Virus; note: nearly all actives have a fitted effect of over 50% in size
# Settings: Lassa virus pseudotype entry inhibition, cell reporter; series mostly up to 37.9 µM
# Potency is the fitted concentration of half-maximal effect.
row,Compound,Potency
1,O=C(NCC(c1ccco1)N1CCN(c2ccc(F)cc2)CC1)C(=O)NC1CCCCC1 (stereo unspecified),"inconclusive: 0.112 µM [activator, partial curve, poor fit]"
2,NC(=O)c1ncc(C(F)(F)F)cc1Oc1cccnc1,inactive
3,CC(=O)c1c(C)n(C2CCCCC2)c2ccc(O)cc12,inactive
4,CC(C)C1C(=O)N(Cc2cn(Cc3ccco3)nn2)CCS(=O)(=O)N1Cc1ccc(-c2ccc(Cl)cc2)cc1 (stereo unspecified),"inconclusive: 3.15 µM [inhibitor, single point]"
5,Cc1cc2nc3c(c(=O)n2[nH]1)CCCC3,inactive
6,COc1ccc(C2=NN3C(C2)c2ccccc2OC3c2cccs2)cc1 (stereo unspecified),inactive
7,Cc1cccc(NC(=O)C(=O)NCCCc2ccccc2)c1,inactive
8,COc1ccc(C2c3ccc4ccccc4c3Oc3ncn(CCCO)c(=N)c32)cc1OC (stereo unspecified),"inconclusive: 35.5 µM [inhibitor, single point]"
9,COc1cccc(N2CC(NC(=O)C3CCCCC3)CC2=O)c1 (stereo unspecified),"inconclusive: 22.4 µM [activator, single point]"
10,COc1ccc(N2CCN(C(=O)c3ccc4c(c3)N(Cc3cc(C)ccc3C)C(=O)c3ccccc3S4=O)CC2)cc1 (stereo unspecified),"inconclusive: 7.08 µM [inhibitor, partial curve, poor fit]"
11,COc1ccc(/C(N)=N/OC(=O)CSc2ccc(C)cc2)cc1,inactive
12,COc1ccc(-c2nnc(SCC(=O)/C(C#N)=C(\C)N)o2)cc1,"inconclusive: 7.3 µM [inhibitor, partial curve]"
13,CCc1ccccc1NC(=O)/C(=C/c1ccco1)c1ccccc1,active: 15.8 µM
14,COc1ccc(Cl)cc1NC(=O)CNC(c1ccccc1)c1ccccc1,active: 2.51 µM
15,COc1cc2c(cc1NC(=O)CSc1nnnn1-c1ccccc1)oc1ccccc12,"inconclusive: 25.1 µM [inhibitor, single point]"
16,Cc1ccc(-c2cc(C(=O)N/N=C/c3ccc([N+](=O)[O-])o3)c3ccccc3n2)o1,"inconclusive: 11.2 µM [inhibitor, partial curve, poor fit]"
17,COc1ccc(-c2nc(NC(=O)c3c(C)noc3C)sc2C)cc1,"inconclusive: 35.5 µM [inhibitor, single point]"
18,COc1ccc(C2c3ccc4ccccc4c3Oc3ncn(CCN4CCOCC4)c(=N)c32)cc1 (stereo unspecified),inactive
19,CCOC(=O)CN1C(=O)[C@@]2(CC(C)=CC[C@@H](COc3ccccc3)O2)c2ccccc21,"inconclusive: 1.88 µM [inhibitor, partial curve, poor fit]"
20,COc1cccc(NC(=O)c2oc3ccccc3c2NC(C)=O)c1,inactive
21,CN(Cc1ccccc1)C(=O)c1ccccc1Br,"inconclusive: 23.1 µM [activator, partial curve, poor fit]"
22,O=C(NCCCN1CCOCC1)c1cc2ccccc2cc1O,inactive
23,CSc1ccc(/C=N/NC(=O)c2cccc(Cl)c2)cc1,"inconclusive: 29.1 µM [inhibitor, single point]"

# An excerpt of these results, with bars between the fields:
row | Compound | Potency
3 | CC(=O)c1c(C)n(C2CCCCC2)c2ccc(O)cc12 | inactive
11 | COc1ccc(/C(N)=N/OC(=O)CSc2ccc(C)cc2)cc1 | inactive

# (continued)

row,Compound,Potency
1,Cc1ccccc1-c1nc(CS(=O)CC(=O)NCCCN(C)c2ccccc2)c(C)o1 (stereo unspecified),inactive
2,Cc1ccc(C(=O)Nc2ccc(C(=O)N/N=C/c3ccc(C)o3)cc2)cc1,"inconclusive: 35.5 µM [inhibitor, single point]"
3,CC(C)CSC1=NSC2=NC(=O)/C(=C\c3ccccc3)C(=N)N12,"inconclusive: 20 µM [inhibitor, single point]"
4,CCCCn1c(N)c(N(CCC(C)C)C(=O)c2ccc([N+](=O)[O-])s2)c(=O)[nH]c1=O,inactive
5,c1ccc2c(c1)ncc1cccn12,inactive
6,CCOc1ccc(S(=O)(=O)N2CCCC(C(=O)N3CCN(c4ccccc4)CC3)C2)cc1 (stereo unspecified),"inconclusive: 20 µM [inhibitor, single point]"
7,Cc1ccc(NC(=O)c2ccc3c(c2)NC(=O)CS3)nc1,"inconclusive: 10 µM [activator, partial curve, poor fit]"
8,CN(C)c1ccc(C(=O)N/N=C/c2cc(Br)cc(Br)c2O)cc1,"inconclusive: 11.2 µM [inhibitor, partial curve, poor fit]"
9,Cc1scc(C(=O)N/N=C/c2ccsc2)c1C,"inconclusive: 10 µM [inhibitor, single point]"
10,Cc1ccc(N2C(=O)CC(N3CCN(c4ccccn4)CC3)C2=O)cc1 (stereo unspecified),inactive
11,CC/C(=N/NC(=O)c1ccc(Br)o1)c1ccc(Cl)cc1,inactive
12,O=[N+]([O-])c1cccc(/C([O-])=C(/C(=S)Nc2ccccc2F)[n+]2ccccc2)c1,"inconclusive: 2.82 µM [activator, single point]"
13,Cc1ccccc1SCCNC(=O)c1ccccc1Br,"inconclusive: 35.5 µM [inhibitor, single point]"
14,CCc1ccc(N(CC(=O)NCc2ccco2)C(=O)CCC(=O)Nc2ccccn2)cc1,inactive
15,Cc1ccc(OCC(=O)N2CCOCC2)cc1C,"inconclusive: 3.26 µM [activator, full curve, poor fit]"
16,Oc1cccc(/C=N/N(Cc2ccccc2)c2ccccc2)c1,"inconclusive: 25.1 µM [inhibitor, single point]"
17,CC(C)SC1=NC(C)(C)C=C(/C=C/c2ccc(Cl)cc2Cl)N1,"inconclusive: 17.8 µM [inhibitor, single point]"
18,CC(=O)Oc1ccc2c(=O)c(Oc3ccccc3)coc2c1OC(C)=O,"inconclusive: 10 µM [inhibitor, partial curve]"
19,CC(Oc1ccc(Br)cc1)C(=O)Nc1nc(-c2ccccn2)cs1 (stereo unspecified),"inconclusive: 35.5 µM [inhibitor, single point]"
20,Cc1ccc(S(=O)(=O)NCc2ccc(C(=O)NCCCN3CCC(Cc4ccccc4)CC3)cc2)cc1,"inconclusive: 0.251 µM [activator, full curve, poor fit]"
21,CN(C)S(=O)(=O)c1cc(NC(=O)COC(=O)Cc2ccccc2)ccc1Cl,"inconclusive: 6.51 µM [inhibitor, single point]"
22,CCOc1ccc(S(=O)(=O)NCc2cccnc2)cc1C,inactive
23,COc1cccc2sc(N(Cc3cccnc3)C(=O)C3CCCCC3)nc12,"inconclusive: 35.5 µM [inhibitor, single point]"

# Another view of some results above.
row | Compound | Potency
4 | CCCCn1c(N)c(N(CCC(C)C)C(=O)c2ccc([N+](=O)[O-])s2)c(=O)[nH]c1=O | inactive
5 | c1ccc2c(c1)ncc1cccn12 | inactive
